Source: CN114591431A
Changes are numbered by the printed parent chain. Results are given in words; binding and its absence hold for the method and conditions named. Some entries that bind do so weakly or less than the wild type. Where a sequence is shown, tags or fusion partners need not be part of it.

T1: 鼠GAS6 his蛋白(Sino Biological，Cat#58026-M08H) (mouse) (UniProt Q61592)
T1 sequence (looked up): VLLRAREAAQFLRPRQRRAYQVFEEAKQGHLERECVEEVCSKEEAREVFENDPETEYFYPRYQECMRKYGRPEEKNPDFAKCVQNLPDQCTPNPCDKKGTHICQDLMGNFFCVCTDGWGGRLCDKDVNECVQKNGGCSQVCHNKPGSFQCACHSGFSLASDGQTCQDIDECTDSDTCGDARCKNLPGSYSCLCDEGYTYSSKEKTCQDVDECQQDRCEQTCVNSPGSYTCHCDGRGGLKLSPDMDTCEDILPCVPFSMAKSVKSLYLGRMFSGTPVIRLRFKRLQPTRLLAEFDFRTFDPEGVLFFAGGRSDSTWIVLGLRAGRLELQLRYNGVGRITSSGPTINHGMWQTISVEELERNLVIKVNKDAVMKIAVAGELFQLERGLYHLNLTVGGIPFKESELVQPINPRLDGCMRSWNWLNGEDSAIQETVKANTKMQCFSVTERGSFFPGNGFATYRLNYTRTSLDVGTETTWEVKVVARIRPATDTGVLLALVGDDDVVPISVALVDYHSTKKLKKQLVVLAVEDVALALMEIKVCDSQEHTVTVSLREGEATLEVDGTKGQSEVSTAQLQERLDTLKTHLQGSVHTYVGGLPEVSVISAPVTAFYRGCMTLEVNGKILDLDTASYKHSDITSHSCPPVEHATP

T2: 重组人GAS6 his 蛋白(Novoprotein，Cat#C01W) (human) (UniProt Q14393)
T2 sequence (looked up): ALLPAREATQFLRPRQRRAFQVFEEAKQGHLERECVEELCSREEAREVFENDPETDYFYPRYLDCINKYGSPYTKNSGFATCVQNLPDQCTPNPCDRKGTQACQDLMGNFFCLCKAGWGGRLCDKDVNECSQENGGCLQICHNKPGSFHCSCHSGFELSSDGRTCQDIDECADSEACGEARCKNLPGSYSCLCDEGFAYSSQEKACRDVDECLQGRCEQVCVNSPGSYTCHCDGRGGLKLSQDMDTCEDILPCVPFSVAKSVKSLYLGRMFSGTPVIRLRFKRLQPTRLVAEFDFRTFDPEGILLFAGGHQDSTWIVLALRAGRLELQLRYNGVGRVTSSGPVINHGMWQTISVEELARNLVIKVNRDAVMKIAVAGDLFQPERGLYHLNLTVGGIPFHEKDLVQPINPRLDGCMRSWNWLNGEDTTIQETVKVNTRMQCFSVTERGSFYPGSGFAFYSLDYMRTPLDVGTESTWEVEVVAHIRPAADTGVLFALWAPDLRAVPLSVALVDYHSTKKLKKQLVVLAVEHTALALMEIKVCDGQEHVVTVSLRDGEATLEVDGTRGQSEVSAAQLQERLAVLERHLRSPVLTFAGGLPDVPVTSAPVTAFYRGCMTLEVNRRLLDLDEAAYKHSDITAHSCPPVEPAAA

B1: ch2O18G6 (antibody, human IgG1, kappa, V domains shown)
VH: QVQLQQSGPELVKPGASVKISCKTSGNTFTEYIMHWVKQSHGKSLEWIGGINPKNGGTSYNQKFKGKATLTVDKSSRTAYMELRSLTSEDSAVYYCARVRIPPYVYYAMDYWGQGTTVTVSS
VL: DVVVTQTPLSLPVSLGDQASISCRSSQSIVHSNGNTYLEWYLQKPGQSPKLLIYKVSNRFSGVPDRFSGSGSGTDFTLKISRVEAEDLGVYYCFQGSHVPYTFGGGTKLEIKR
B2: ch15G5E5 (antibody, human IgG1, kappa, V domains shown)
VH: EVQLQQSGPELVKPGASVKMSCKASGYTFTDDYMKWVKQSHGKSLEWIGDINPNNGGTIYNQKFKGKAILTVDKSSSTAYMQLNSLTSEDSAVYYCARRGRGSWGQGTTVTVSS
VL: B1 VL with V3L, V4M, H31Y, K55R, V90I, Y101L, G105A, I111L
B3: ch18I16C6 (antibody, human IgG1, kappa, V domains shown)
VH: EVKIEESGGGLVKPGGSLKLSCAASGFTFSSYAMSWFRQTPEKRLEWVASISSGGNSYYPDSVKGRFTISRDNARNILYLQMSSLRSEDTAMYYCSRTPDYWGQGTTVTVSS
VL: DVVMTQSPSSMCASLGERVTITCKASQDINTYLSWFQQKPGKSPKTLIYRANRLVDGVPSRFSGSGSGQDYSLTISSLEYEDMGIYYCLQYDEFPFTFGSGTKLEIKR
B4: ch2D3C6 (antibody, human IgG1, kappa, V domains shown)
VH: DIQLQESGPGLVKPSQSLSLTCSVTGYSITNGYYWNWIRQFPGNKLEWMGYISYDGTNNYNPSLKNRISITRDTSKNQFFLKLNSVTTEDTATYYCARRALWYYAMDYWGQGTSVTVSS
VL: DIVMTQSPASLAVSLGQRATISCKASQSVDYDGESYMNWYQQKPGQPPKLLIYVASNLESGIPARFSGSGSGTDFTLNIHPVEEEDAATYYCQQSDEDPYTFGGGTKLEIKR

target: T1, 鼠GAS6 his蛋白(Sino Biological，Cat#58026-M08H) (mouse); assay: ELISA

| binding | Binder |
| --- | --- |
| binds | B1 |
| binds | B2 |
| binds | B3 |

target: T2, 重组人GAS6 his 蛋白(Novoprotein，Cat#C01W) (human); assay: ELISA

| binding | Binder |
| --- | --- |
| binds | B1 |
| binds | B2 |
| binds | B3 |

target: T2, 重组人GAS6 his 蛋白(Novoprotein，Cat#C01W) (human); assay: ELISA, coated human GAS6 his

| binding | Binder |
| --- | --- |
| binds | B1 |
| binds | B2 |
| binds | B3 |

target: T1, 鼠GAS6 his蛋白(Sino Biological，Cat#58026-M08H) (mouse); assay: ELISA, coated mouse GAS6 his

| binding | Binder |
| --- | --- |
| binds | B1 |
| binds | B2 |
| binds | B4 |
| binds | B3 |
